Data reported in PMC7819943, “Rice protein-binding microarrays: a tool to detect cis-acting elements near promoter regions in rice”.
Some of the results follow.

Amino acid sequences for entries named in this document (tags omitted).
UniProt Q0JBA9, entry or part of it: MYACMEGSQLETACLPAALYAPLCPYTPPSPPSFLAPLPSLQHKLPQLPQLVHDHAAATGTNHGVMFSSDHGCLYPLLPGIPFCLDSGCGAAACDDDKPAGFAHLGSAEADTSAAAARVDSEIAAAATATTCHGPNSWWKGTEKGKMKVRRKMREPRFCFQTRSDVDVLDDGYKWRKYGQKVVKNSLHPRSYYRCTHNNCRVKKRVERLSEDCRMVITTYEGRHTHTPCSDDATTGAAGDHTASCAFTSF

The sequences below were run against OsWRKY34 (Oryza sativa, UniProt Q0JBA9 1-250) (assay: protein-binding microarray (RPBM); PBS, 2% BSA, 51.3 ng/ul salmon testes DNA, 50 uM zinc acetate, 200 nM TF, 25 C, 1 h; high values mean tight binding). Details: protein: recombinant; tags: N-terminal polyhistidine and DsRed monomer fusion (pET32a); label: CyDye5-dUTP incorporated in the synthesized complementary strand; 3' TTTTT single-stranded linker to array surface; dsDNA, one strand shown.
Summary of the method: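 Using Ni–NTA, transcription factors fused N-terminally to polyhistidine and DsRed were purified after expression in E. coli BL21-CodonPlus. These were incubated at 200 nM with a blocked, double-stranded custom Agilent array for 1 h at 25 °C in a buffer containing 50 µM zinc acetate, and the array was washed. The binding signal is per-feature fluorescence intensity (arbitrary units) on an Axon 4000B scanner.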

Sequence	binding signal
AATTTGTCGTGCTCTCTCCGCTCCCAGCCATTTGTCACCACGGAGTCACCTAGTGCAG	10100 fluorescence intensity (a.u.)
TACTGACCTGTGGGCATTCGTCACTCGAGCCCACTTAACACGGAGTCACCTAGTGCAG	8240 fluorescence intensity (a.u.)
AACACACATCCAACTTCCAGTCCCATCGATATATTTTTTTCGGAGTCACCTAGTGCAG	14700 fluorescence intensity (a.u.)
TGTGAGAAAAAGTCAACGGCGTCATCTATTAAAAAACGGACGGAGTCACCTAGTGCAG	8450 fluorescence intensity (a.u.)
CGCCGTCGCTCGTCCTGTTGCTTCCGCCGCATCCATCCTGCGGAGTCACCTAGTGCAG	8680 fluorescence intensity (a.u.)
ACGCAACTTTTCATTTTTTATATTTGCATAATTTTTTTTACGGAGTCACCTAGTGCAG	12100 fluorescence intensity (a.u.)
CACTCGTGGGGTACGTCACTGCAATACTGCATCCTCCATTCGGAGTCACCTAGTGCAG	12900 fluorescence intensity (a.u.)
GTGTTCTTTTTTCATTTCTGAAATTTACTTTTTCTAATTTCGGAGTCACCTAGTGCAG	8830 fluorescence intensity (a.u.)
TTATTTGATGACTCGCTTCTCGTCCCACAGAAAATCTTCTCGGAGTCACCTAGTGCAG	10200 fluorescence intensity (a.u.)
CTCTTCTATACCCCTAAATTTTGTCTCAAAACTCTATATGCGGAGTCACCTAGTGCAG	8320 fluorescence intensity (a.u.)
GCTCCGACTCCCTGTTTCCTGGTCCTCTTTTACACCGGCTCGGAGTCACCTAGTGCAG	15100 fluorescence intensity (a.u.)
TGACGCCGTTGACTTTTTCTCACATGTTTGACTATTCGTCCGGAGTCACCTAGTGCAG	49100 fluorescence intensity (a.u.)
TGTACAGCTCACTCATCACTGATCCGTCCCATGTGGTTCACGGAGTCACCTAGTGCAG	8690 fluorescence intensity (a.u.)
TTTCCCTTTTGAGTTCTTCCGTTTCGACTAGTTTTTCCAACGGAGTCACCTAGTGCAG	10200 fluorescence intensity (a.u.)
AATGCCGTCCGCCCACGTGGCCAACCCGCGACCACCCGCGCGGAGTCACCTAGTGCAG	9120 fluorescence intensity (a.u.)
GTCAAACGACTATTCCTGTGTTTTGCATCCATCTGTTTTACGGAGTCACCTAGTGCAG	9520 fluorescence intensity (a.u.)
CCGCTGCCGCTCTCCATCCCGCCCTCGGTCGCCGACGATCCGGAGTCACCTAGTGCAG	11600 fluorescence intensity (a.u.)
ACTAACCATGGTGCATTGACTTTTGCTTAATATTATTTCACGGAGTCACCTAGTGCAG	10200 fluorescence intensity (a.u.)
TATTATAAGTTGTTTTACTTTTTTATTAGTCATTTTTTATCGGAGTCACCTAGTGCAG	10100 fluorescence intensity (a.u.)
CTGTAGGTACTCGTACTACTCCAATTCTTTCTCTCGCCTACGGAGTCACCTAGTGCAG	8070 fluorescence intensity (a.u.)
GCAAGTTTTTTGGTCACTCAAGCAACCTTCGCTTGCACTCCGGAGTCACCTAGTGCAG	8900 fluorescence intensity (a.u.)

Sequence	binding signal
GCTTGACACCGATCCATTTGACGAGCTCGCATTTCCTTCACGGAGTCACCTAGTGCAG	11400 fluorescence intensity (a.u.)
CGGTGTTCTACTGGCGACTGGCCTCCTCGAGTTCTTGATCCGGAGTCACCTAGTGCAG	10400 fluorescence intensity (a.u.)
CATTCCATCTCTCTCTCTCTCGAATCTTGATCTCTCTCTTCGGAGTCACCTAGTGCAG	8570 fluorescence intensity (a.u.)
TTCTGAAAAAAAATCGTACTTATGGAAGAGTGCCACAAATCGGAGTCACCTAGTGCAG	8380 fluorescence intensity (a.u.)
AGTCCATGCACCAAACCCCATCCCAGCCGTCCATCTCCTACGGAGTCACCTAGTGCAG	8920 fluorescence intensity (a.u.)
GCTCACATTCATATACATGTTAATGAATCTAGACACACATCGGAGTCACCTAGTGCAG	8520 fluorescence intensity (a.u.)
TACAGGGCAGCAGCCGCGGCCGTTCATCATCGTGTTGACCCGGAGTCACCTAGTGCAG	10200 fluorescence intensity (a.u.)
AAAGTTGCATCCGACCTATTCATGCCATTTCGTCCCTCCACGGAGTCACCTAGTGCAG	8230 fluorescence intensity (a.u.)
GTAGCTCTTTTTTTTTGTTTTGGATATACATATTTAGTTACGGAGTCACCTAGTGCAG	11600 fluorescence intensity (a.u.)
TGACGATGCCTCTGAACTGTGCTGCTCGACTACGTCTTCCCGGAGTCACCTAGTGCAG	8160 fluorescence intensity (a.u.)
CATCTTTTACAGTTCCATCTCTACTAATCACACCTCATCTCGGAGTCACCTAGTGCAG	10900 fluorescence intensity (a.u.)
TTTTAATGTATGACGCTGTTGACTTTTTATCCAACGTTTGCGGAGTCACCTAGTGCAG	16400 fluorescence intensity (a.u.)
GATTGTTCGCTCCTTTCTTGGCGGCTGGTATTCACATCGACGGAGTCACCTAGTGCAG	9480 fluorescence intensity (a.u.)
GAATGGTCTCTTTAATTTTATTGCTGATGCTGATTAATCTCGGAGTCACCTAGTGCAG	8970 fluorescence intensity (a.u.)
TCTACCCTCAACCAACCTGCTTCTCCATCAGTTAATTATGCGGAGTCACCTAGTGCAG	11500 fluorescence intensity (a.u.)
AGCTTGGTTTCTGGGTTGGGTTGGGTTTGGTTGCGTTGCGCGGAGTCACCTAGTGCAG	22700 fluorescence intensity (a.u.)
CAGCTTTATCTTTTCGTGTATGTTTATACTTATCAGTAAACGGAGTCACCTAGTGCAG	9130 fluorescence intensity (a.u.)
CTCCAGCTTCAACTCTCCTATAGCTAGAGTCCAACCAAATCGGAGTCACCTAGTGCAG	8120 fluorescence intensity (a.u.)
ACAAGGCGACAACCCTTCTCAGCGCTCCCTGTCCTAGTCACGGAGTCACCTAGTGCAG	8810 fluorescence intensity (a.u.)
TTTTTTCTCTTTTTTTTCTTTCTTTTTCCTCTCTTCTTTTCGGAGTCACCTAGTGCAG	10500 fluorescence intensity (a.u.)
AGTTTTAAGGAGGGAGTTGATGGTGGGATTGGTCATGGGACGGAGTCACCTAGTGCAG	8620 fluorescence intensity (a.u.)

Sequence	binding signal
CGATCTCACCGCCGCATGCGCCATCTGAAGCCGTGCGCCCCGGAGTCACCTAGTGCAG	8150 fluorescence intensity (a.u.)
CCGTCTCCGCCAATCGCCGCGGCGAGGACCAGTGGTCCCTCGGAGTCACCTAGTGCAG	9610 fluorescence intensity (a.u.)
CATCGACTACCTGCCATTCTTCTACTCCAGGGTCTTCTCGCGGAGTCACCTAGTGCAG	9510 fluorescence intensity (a.u.)
TTCGGTTTGTCGTGATTTCATGCATCTCATGAGGTCCCAACGGAGTCACCTAGTGCAG	8040 fluorescence intensity (a.u.)
CTCTCCTGCCAAATACCACTCCATACCCGCGAAAAACGCTCGGAGTCACCTAGTGCAG	8370 fluorescence intensity (a.u.)
ACTTCCCTTGCAGATTGTCCATTTTTTTTCTGTTCGGAATCGGAGTCACCTAGTGCAG	10800 fluorescence intensity (a.u.)
TGTTTTTCATGTTGCATCTTTGGTAAAATAAATTTTGTAACGGAGTCACCTAGTGCAG	8640 fluorescence intensity (a.u.)
CCACGCCGCCCGCCACCGCCGCTCGCCATCGCCACCGTCGCGGAGTCACCTAGTGCAG	9580 fluorescence intensity (a.u.)
TGGTGCTCGTCCGGTCCAAATGTTGTCTGCCTTAGTGCCTCGGAGTCACCTAGTGCAG	8660 fluorescence intensity (a.u.)
CCGTAATCGGTTAGCCCGCAAACGAATCCCAGCCCAATTACGGAGTCACCTAGTGCAG	8630 fluorescence intensity (a.u.)
GGGGATTTTTTTTTCGGATCCAGAACGATCAGAGAGGGAGCGGAGTCACCTAGTGCAG	9300 fluorescence intensity (a.u.)
TTTTGCAATCATCTGTTTTACAATTGTATTCCTGTCAGAACGGAGTCACCTAGTGCAG	9300 fluorescence intensity (a.u.)
CTTCCACAAAGATTCGAATTTTCTTTTCGGTTTGGATCATCGGAGTCACCTAGTGCAG	9020 fluorescence intensity (a.u.)
AATTCTCCAAGCCCTGTGTTGCATCTGCATGCCATCTCATCGGAGTCACCTAGTGCAG	10900 fluorescence intensity (a.u.)
GTTCACTCTCCGACGACTTAATTGTGTGCGTGTTGTATTTCGGAGTCACCTAGTGCAG	12400 fluorescence intensity (a.u.)
AGGGACTCACCCTCTCCTCGCCTCGCCTCGCCTCGCTAACCGGAGTCACCTAGTGCAG	9380 fluorescence intensity (a.u.)
CGAGTGGGTTTAAACTCGAGTTGTTTTTTTGTTCGTTAATCGGAGTCACCTAGTGCAG	9680 fluorescence intensity (a.u.)
CTCCACTCTCCGCCGCCGCCGCGCCAACCTCCGAGCTCTGCGGAGTCACCTAGTGCAG	8820 fluorescence intensity (a.u.)
AACTAATTTCTTCTCTTTTTTTTGTCCTTTTTCTTTACAACGGAGTCACCTAGTGCAG	12300 fluorescence intensity (a.u.)
TGTGGTGGCGAGCGGCACGGAGGCGGGGCGGTGGAGGGAGCGGAGTCACCTAGTGCAG	9670 fluorescence intensity (a.u.)
ATCTCTGCCTTTTCATATTAATATTGATCTTGCTGCATTTCGGAGTCACCTAGTGCAG	10200 fluorescence intensity (a.u.)

Sequence	binding signal
GCAGAACTTTCACTGAATCAACAGAATTTCGGTCCTACCTCGGAGTCACCTAGTGCAG	8120 fluorescence intensity (a.u.)
CACGCTTATTTCTTCTCTCCTACCTCCGCTTCACCTTCACCGGAGTCACCTAGTGCAG	8800 fluorescence intensity (a.u.)
ATTACTTGTTTCATCCATATTGGGTCACTGTAATTTTCCTCGGAGTCACCTAGTGCAG	10800 fluorescence intensity (a.u.)
TTTCTTTTTATAAAACCTTTTCAACTTTGTTTATTTCTTCCGGAGTCACCTAGTGCAG	9530 fluorescence intensity (a.u.)
CTTGCGCCTCTTCGCTGATCCTCTTTTGTTCAGCGGCTGCCGGAGTCACCTAGTGCAG	10200 fluorescence intensity (a.u.)
TGCCACCTCAAGGACTCGCCCTTGTCGTCGCCTTCGCCATCGGAGTCACCTAGTGCAG	13400 fluorescence intensity (a.u.)
TTCACCCACGTTTCTGCCCAACCCTCTCACCCTAGCTTAGCGGAGTCACCTAGTGCAG	10800 fluorescence intensity (a.u.)
AGATTTATAGTACTTGCTCTAAGGTATTGGCTCTTACTACCGGAGTCACCTAGTGCAG	9080 fluorescence intensity (a.u.)
CTTTGCCAATCCTAACATTATCTTATTTTTGCAACAGTAACGGAGTCACCTAGTGCAG	11900 fluorescence intensity (a.u.)
CCTTGTCTAGTCCACTACACTACACTGCAATACGGCAATGCGGAGTCACCTAGTGCAG	8900 fluorescence intensity (a.u.)
TGACCAAATTTCAGTACGCCAACCATTTGCAGTTGTTTTTCGGAGTCACCTAGTGCAG	8270 fluorescence intensity (a.u.)
GCCGCGCGTTACCGCCGATCTCCATCCCGATGCCCCACTCCGGAGTCACCTAGTGCAG	8090 fluorescence intensity (a.u.)
ACCTTGTCATCTTCCTCATCTTCGACAGCTCCTCGCATGCCGGAGTCACCTAGTGCAG	8570 fluorescence intensity (a.u.)
CTTCTCAAAATCTGCTCAACCACAGTCCTAATTTCTATAGCGGAGTCACCTAGTGCAG	9160 fluorescence intensity (a.u.)
TGGCGGTGGCGTTGGAGGAGGGTTTGGTGGCGGAAAAGGTCGGAGTCACCTAGTGCAG	10300 fluorescence intensity (a.u.)
CTCTCTGTCCCTGCAAACACGCTTCCTGCCTCCTCTCATTCGGAGTCACCTAGTGCAG	8590 fluorescence intensity (a.u.)
ATAAGAGAATTCAATTTTTTTTACTGCGTCACATAATTTTCGGAGTCACCTAGTGCAG	8480 fluorescence intensity (a.u.)
TTCCTTTTGTGTTGTTTCCCTTTCAGTTTCATCTTTTGCTCGGAGTCACCTAGTGCAG	8110 fluorescence intensity (a.u.)
GTGAGCTCCACGCGCCTATATCTATCCCTTTCTATCACCTCGGAGTCACCTAGTGCAG	8100 fluorescence intensity (a.u.)
GCCGCCGCGGCCATCCCGCTCATCGACCTCGCCAAGGCCGCGGAGTCACCTAGTGCAG	9830 fluorescence intensity (a.u.)
ATGTACTAAAAAGTCAACGGTGTCAAACATTTTGAAACGGCGGAGTCACCTAGTGCAG	12600 fluorescence intensity (a.u.)

Quoted at random: 3 entries already listed
Sequence	binding signal
CTTGCGCCTCTTCGCTGATCCTCTTTTGTTCAGCGGCTGCCGGAGTCACCTAGTGCAG	10200 fluorescence intensity (a.u.)
TTTCTTTTTATAAAACCTTTTCAACTTTGTTTATTTCTTCCGGAGTCACCTAGTGCAG	9530 fluorescence intensity (a.u.)
GCCGCCGCGGCCATCCCGCTCATCGACCTCGCCAAGGCCGCGGAGTCACCTAGTGCAG	9830 fluorescence intensity (a.u.)
